Article PMC6294630
These are yes or no findings as the source states them, for the method shown.

Molecular target: Gal-13 variant C136SC138S (human) (UniProt Q9UHV8)
Test: SEC; gel filtration; conditions not given; both purified

B1: Gal-13 variant C136SC138S (protein, UniProt Q9UHV8 1-139)
chain: MSSLPVPYKLPVSLSVGSCVIIKGTPIHSFINDPQLQVDFYTDMDEDSDIAFRFRVHFGNHVVMNRREFGIWMLEETTDYVPFEDGKQFELCIYVHYNEYEIKVNGIRIYGFVHRIPPSFVKMVQVSRDISLTSVSVSN
  binding: no binding
